Measurements as given in paper PMC3780650.
Results are given in words; binding and its absence hold for the method and conditions named. Binding seen in cells or lysates may run through a third protein. Some entries that bind do so weakly or less than the wild type.

The chains behind the UniProt entries cited, without tags or fusion partners.
UniProt O00159: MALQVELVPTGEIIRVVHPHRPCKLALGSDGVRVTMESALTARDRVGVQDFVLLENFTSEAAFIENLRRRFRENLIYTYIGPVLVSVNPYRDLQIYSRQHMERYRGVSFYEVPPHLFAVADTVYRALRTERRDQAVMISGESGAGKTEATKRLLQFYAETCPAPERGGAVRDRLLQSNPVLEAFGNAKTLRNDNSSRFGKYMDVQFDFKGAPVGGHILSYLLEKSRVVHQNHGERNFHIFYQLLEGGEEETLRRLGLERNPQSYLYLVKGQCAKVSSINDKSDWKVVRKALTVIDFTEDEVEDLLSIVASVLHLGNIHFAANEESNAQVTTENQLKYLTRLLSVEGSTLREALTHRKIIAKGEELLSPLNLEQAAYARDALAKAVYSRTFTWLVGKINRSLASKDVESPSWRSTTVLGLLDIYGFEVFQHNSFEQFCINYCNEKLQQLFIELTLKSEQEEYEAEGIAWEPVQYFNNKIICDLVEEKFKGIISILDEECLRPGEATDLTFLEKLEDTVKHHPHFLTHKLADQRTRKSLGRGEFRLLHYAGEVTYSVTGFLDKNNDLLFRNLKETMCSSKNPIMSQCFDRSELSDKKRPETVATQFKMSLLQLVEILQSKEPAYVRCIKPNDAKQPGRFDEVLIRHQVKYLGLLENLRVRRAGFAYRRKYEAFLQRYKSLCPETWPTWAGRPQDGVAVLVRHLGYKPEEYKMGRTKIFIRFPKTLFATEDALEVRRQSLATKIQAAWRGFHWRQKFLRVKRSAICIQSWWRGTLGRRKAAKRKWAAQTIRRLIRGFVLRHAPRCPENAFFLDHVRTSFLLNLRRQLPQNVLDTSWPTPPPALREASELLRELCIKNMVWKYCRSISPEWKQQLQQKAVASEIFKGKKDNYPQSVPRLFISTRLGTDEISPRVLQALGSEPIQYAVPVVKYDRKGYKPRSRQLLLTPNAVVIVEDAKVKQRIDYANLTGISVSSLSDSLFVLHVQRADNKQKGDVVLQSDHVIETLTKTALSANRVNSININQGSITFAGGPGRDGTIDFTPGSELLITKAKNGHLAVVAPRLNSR

B1: Cavin-3 (protein, UniProt Q969G5 1-261)
chain: MRESALERGPVPEAPAGGPVHAVTVVTLLEKLASMLETLRERQGGLARRQGGLAGSVRRIQSGLGALSRSHDTTSNTLAQLLAKAERVSSHANAAQERAVRRAAQVQRLEANHGLLVARGKLHVLLFKEEGEVPASAFQKAPEPLGPADQSELGPEQLEAEVGESSDEEPVESRAQRLRRTGLQKVQSLRRALSGRKGPAAPPPTPVKPPRLGPGRSAEAQPEAQPALEPTLEPEPPQDTEEDPGRPGAAEEALLQMESVA
B2: Cavin-3 stably expressed in H1299 cells (H/Cavin-3 cells) (protein, UniProt Q969G5 1-261)
chain: MRESALERGPVPEAPAGGPVHAVTVVTLLEKLASMLETLRERQGGLARRQGGLAGSVRRIQSGLGALSRSHDTTSNTLAQLLAKAERVSSHANAAQERAVRRAAQVQRLEANHGLLVARGKLHVLLFKEEGEVPASAFQKAPEPLGPADQSELGPEQLEAEVGESSDEEPVESRAQRLRRTGLQKVQSLRRALSGRKGPAAPPPTPVKPPRLGPGRSAEAQPEAQPALEPTLEPEPPQDTEEDPGRPGAAEEALLQMESVA

Assays:
[1] = biological target: Myosin-1c (human (endogenous in SV589 and H1299)) (UniProt O00159); test: co-IP; endogenous proteins from SV589 fibroblast lysate (TETN/OG: 25 mM Tris-HCl pH 7.5, 5 mM EDTA, 150 mM NaCl, 1% Triton X-100, 60 mM octylglucoside, with 10 mM CaCl2); 10 ug rabbit anti-cavin-3 or anti-myosin-1c, 1 hr 37°C, Protein A/G beads 4 hr 4°C; washes with 500 mM and 250 mM NaCl; immunoblot
[2] = biological target: Myosin-1c (human (endogenous in SV589 and H1299)) (UniProt O00159); test: co-IP; lysate of H/Cavin-3 cells (H1299 stably expressing cavin-3); IP with anti-myosin-1c, Protein A/G beads, immunoblot

Binder | binding [1] | binding [2]
B1 | binds | 
B2 |  | binds
